# Results reported in US20240368232A1, “ANTIVIRAL LARAZOTIDE DERIVATIVES” (priority 2021, published 2024).
# For at least one compound, name, drawing or mass did not settle the structure. Square brackets hold non-standard residues; d marks the D form. Peptide text beside a SMILES is read from it. * marks the point of attachment. ξ: configuration not given here. Hyp = O=C(O)[C@@H]1C[C@@H](O)CN1; Tic = O=C(O)[C@@H]1Cc2ccccc2CN1; ξY = NC(Cc1ccc(O)cc1)C(=O)O; ξH = NC(Cc1c[nH]cn1)C(=O)O; tBu = CC(C)(C)*
# Target: T1, SARS-COV-2 M^pro (3264-3569aa) (Severe acute respiratory syndrome coronavirus 2, UniProt P0DTD1)
# T1 construct: SARS-COV-2 M^pro (3264-3569aa); purchased Proteros WTH_20_1
# Assay: FRET assay for TRIP on SARS-COV-2 main protease
# Type: biochemical
# Settings: Table 1, 20 nM enzyme, 5 μM probe
row,SMILES,IC50 [µM]
1,CC(=O)NCC(=O)N[C@H](Cc1c[nH]cn1)C(=O)N[C@H](C=O)Cc1c[nH]cn1 [TRIP 7] (Ac-Gly-[dH]-His-aldehyde),> 213
2,CC(C)(C)O[C@H]1CN[C@H](C(=O)N[C@@H](Cc2c[nH]cn2)C(=O)NC(C=O)Cc2c[nH]cn2)C1 (stereo partly shown) [TRIP 37] (H-[Hyp](tBu)-His-[ξH]-aldehyde),> 170
3,CC(=O)NCC(=O)N[C@H](Cc1c[nH]cn1)C(=O)NC(C=O)Cc1ccc(O)cc1 (stereo partly shown) [TRIP 21] (Ac-Gly-[dH]-[ξY]-aldehyde),> 425
4,O=C[C@@H](Cc1c[nH]cn1)NC(=O)[C@H](Cc1c[nH]cn1)NC(=O)[C@@H]1Cc2ccccc2CN1 [TRIP 18] (H-[Tic]-His-[dH]-aldehyde),37.8
